Experimental data reported in publication PMC12714725.
Results are given in words; binding and its absence hold for the method and conditions named. In cells and extracts the contact can be indirect. Here binding means that the protein was enriched with, or labelled near, the bait; the list need not be complete. Values belong to the binder of their own block, whether it stands above or below them.

The chains behind the UniProt entries cited, without tags or fusion partners.
UniProt P48727: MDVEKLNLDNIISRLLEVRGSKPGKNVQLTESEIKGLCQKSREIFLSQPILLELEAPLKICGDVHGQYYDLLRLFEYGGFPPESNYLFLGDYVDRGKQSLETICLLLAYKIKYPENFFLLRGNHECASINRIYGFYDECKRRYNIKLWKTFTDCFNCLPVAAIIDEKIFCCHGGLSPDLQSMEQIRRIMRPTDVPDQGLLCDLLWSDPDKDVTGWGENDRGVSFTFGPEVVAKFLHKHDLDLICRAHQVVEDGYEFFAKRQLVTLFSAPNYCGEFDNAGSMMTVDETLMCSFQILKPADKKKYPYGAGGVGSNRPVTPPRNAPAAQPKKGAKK

Target: mNeonGreen tagged GSP-2 (C. elegans) (UniProt P48727)
Experiment: affinity purification with mass spectrometry; mNeonGreen::GSP-2 precipitated from about 3 mg embryonic extract with mNeonGreen-Trap Agarose beads, 4 °C, 1.5 h; IP buffer 100 mM KCl, 50 mM Tris pH 7.5, 1 mM MgCl2, 1 mM DTT, 5% glycerol, 0.2% NP-40, 1 mM EDTA; N2 strain as control; triplicate; DIA mass spectrometry

binding: binds
B1: SDS-22 (protein, UniProt P45969 1-326)
chain: MSNDKSAEVVVLPRENDEESKEPVLKNQFDLSTFDIDSPEIDLTHTRADHIPDLTGFPKIEELRMRNNLLVSISPTISSLVTLTSLDLYENQLTEISHLESLVNLVSLDLSYNRIRQINGLDKLTKLETLYLVSNKIEKIENLEALTQLKLLELGDNRIKKIENIGHLVNLDELFIGKNKIRQLEGVETLQKLSVLSLPGNRIVKIENVEQLNNLKELYLSDQGLQDIHGVEPLTNLLLLDVANNEIKTFSGVERLESLNDFWANDNKVESFSEIEQLSKLKGLQTVYLERNPFYFNDTNQYRRKVMMTLTQVTQIDATTCRKPIE

binding: binds
B2: APE-1 (protein, UniProt Q9XVN3 1-769)
chain: MVTTSSGGGIGYPANNGVTQVSLIHSSDSVRTVSTAPIYRPTSSMASTMAHKSSTAPFISANQRMSKPPVRVVAQPPPPHPQALSQQYHQQNPMMMYSAPNTRPHVIPTMQVQPTMAAQIKRNNPVNAQFQNPSEMIADYGVKPQSVEMVQRVRAVRRQVADEETELRRLRELEHETAQLQNKNYGRERELNVQGSMLKEAQLELRNASMRAQSLNKHLEEMYRRRQTAAAAALVEQRKMQQHQILLARAANQVSTQEVIRPRASVEPFQVNNTQQQQPSPQMMKSEEFSEKRDLNGQTGSYDAIDGSGDHQKIPTEPSYLAPCKENQQKYSELSKMASTDPHSNHSSPSTSSQKAPTLITFSPPSFEQKINSSTMTRDSPFVERPTSFGDSLDESRLRSGKTDLVSLRSDSLKATKRRSWAASEGTSMSEAEMIHRLLDEQRRGRSHFIPQLPTSQEEPSAITSETYAEEVVNSESKQVATSSDSTNNLELPTEQMVLGSDTTTEEDASSCSTRSDDGQNLEMEVAIERRTVKGILRRPNEKMNKGRIEFDPLALLLDAALEGELDLVRSSASKLTDVSQANDEGITALHNAICAGHYEIVRFLIENDADVNAQDSDGWTPLHCAASCNNLPMVRQLVEGGGCVLASTLSDMETPVEKCEEDEDGYDGCLKYLSAAHNSTGSINTGKVYAAYGYEAAFEDELSFDAGDELTVIEKDKVDKNWWTCEKNNGEKGQVPRTYLALYPSLKYRKKLNFVMFDLPLESNNNVE
